{"source": "patent US9517223B2", "about": "“Methods to treat neurodegenerative diseases” (Children's Medical Center Corporation, priority 2012, dated 2016)", "key": {"[1]": {"test_system": "ALS patient-derived motor neurons", "experiment": "Survival of ALS patient-derived motor neurons in culture (ISL and TUJ1 stain)", "assay_type": "cell-based, human", "conditions": "retigabine 10 μM, 30 days in culture, FIG. 10"}, "[2]": {"test_system": "ALS patient-derived motor neurons (39b)", "experiment": "Extracellular MEA recording of spontaneous firing, SOD1 A4V ALS motor neurons", "conditions": "retigabine 100 nM; Hill plot from a single MEA (~300 active neurons), FIG. 8"}, "[3]": {"test_system": "FUS-derived motor neurons", "experiment": "Extracellular MEA recording of spontaneous action potentials, FUS-derived motor neurons", "conditions": "FIG. 12"}, "[4]": {"test_system": "C9orf72-derived motor neurons", "experiment": "Extracellular MEA recording of spontaneous action potentials, C9orf72-derived motor neurons", "conditions": "FIG. 12"}}, "note": "At least one structure is not confirmed: it was looked up by name or label, or the drawing left a doubt."}
{"molecule": "CCOC(=O)Nc1ccc(NCc2ccc(F)cc2)cc1N", "note": "[Retigabine]", "values": [{"measurement": "survival of motor neurons", "setting": "[1]", "result": "increased the survival"}, {"measurement": "effect on spontaneous firing as assessed by MEA recording", "setting": "[2]", "result": "suppressed spontaneous firing"}, {"measurement": "block of firing (spontaneous action potentials)", "setting": "[3]", "result": "blocks the firing"}, {"measurement": "block of firing (spontaneous action potentials)", "setting": "[4]", "result": "blocks the firing"}]}
